Data as given in PubChem BioAssay AID1259308 (NCATS, 2017)
In all, the deposit lists about 59,000 reagents; below is an unselected part. Over the whole deposit, about 1,510 (2.6%) are marked active. 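Calls use total luciferase alone and ignore viability, so some active siRNAs may act by altering cell number.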 Unmarked entries are inactive. The numbers tell different reagents against one gene apart.

Aim: 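Genes whose loss raises luciferase production in HEK293 cells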 (primary screen)
System: human HEK293 embryonic kidney cells stably expressing firefly luciferase (HEK-CMV-Luc2-Hygro)
Knock-down reagent: single siRNA against human genes, 0.8 pmol siRNA per well
Time to read-out: 72 h
Detection: 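Luciferase light (ONE-Glo) measured on one replicate plate set and viability (CellTiter-Glo) on the other, scaled to a negative control siRNA, with robust z-scores and luciferase per cell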
Reading the numbers: total luciferase, z-score and total luciferase, % of control: higher = more reporter protein produced; luciferase per cell, z-score: higher = more reporter output per viable cell; viable cells, % of control: higher = more viable cells
Rule for the call: 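Active when the median/MAD z-score for overall luciferase is greater than 3; a gene was taken forward for validation with new siRNAs if at least two of its three siRNAs passed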
Calls: active = raised luciferase; inactive = no rise

gene symbol | reagent no. | total luciferase, z-score | total luciferase, % of control | luciferase per cell, z-score | viable cells, % of control
PPP2R1B (protein phosphatase 2 scaffold subunit Abeta) | 1 | 0.121 | 84.3 | -0.297 | 102
PPP2R1B (protein phosphatase 2 scaffold subunit Abeta) | 2 | 0.44 | 90.6 | -0.282 | 109
PPP2R1B (protein phosphatase 2 scaffold subunit Abeta) | 3 | -1.31 | 55.8 | -0.224 | 66.1
SALL4 (spalt like transcription factor 4) | 1 | -2.48 | 32.6 | -0.443 | 41
SALL4 (spalt like transcription factor 4) | 2 | -1.03 | 61.3 | -1.31 | 96.8
SALL4 (spalt like transcription factor 4) | 3 | -0.222 | 77.5 | 0.0415 | 85.6
HSD11B2 (hydroxysteroid 11-beta dehydrogenase 2) | 1 | -0.706 | 67.8 | 0.461 | 67.1
HSD11B2 (hydroxysteroid 11-beta dehydrogenase 2) | 2 | -0.093 | 80 | 0.144 | 86.1
HSD11B2 (hydroxysteroid 11-beta dehydrogenase 2) | 3 | 1.13 | 104 | 0.964 | 90.5
GPSM3 (G protein signaling modulator 3) | 1 | 0.947 | 101 | 1.63 | 73.4
GPSM3 (G protein signaling modulator 3) | 2 | -1.92 | 43.7 | -2.84 | 103
GPSM3 (G protein signaling modulator 3) | 3 | 0.0262 | 82.4 | -0.174 | 96.4
TMEM273 (transmembrane protein 273) | 1 | -0.379 | 74.3 | -0.732 | 101
TMEM273 (transmembrane protein 273) | 2 | 0.668 | 95.2 | 0.562 | 91.7
TMEM273 (transmembrane protein 273) | 3 | -1.07 | 60.7 | -0.588 | 79.2

Reformatted: entries from further up.
gene symbol,reagent no.,"total luciferase, z-score","total luciferase, % of control","luciferase per cell, z-score","viable cells, % of control"
PPP2R1B (protein phosphatase 2 scaffold subunit Abeta),3,-1.31,55.8,-0.224,66.1
SALL4 (spalt like transcription factor 4),1,-2.48,32.6,-0.443,41
SALL4 (spalt like transcription factor 4),2,-1.03,61.3,-1.31,96.8
SALL4 (spalt like transcription factor 4),3,-0.222,77.5,0.0415,85.6

Further records:
gene symbol | reagent no. | total luciferase, z-score | total luciferase, % of control | luciferase per cell, z-score | viable cells, % of control
NME6 (NME/NM23 nucleoside diphosphate kinase 6) | 1 | 0.331 | 88.5 | 0.184 | 94.2
NME6 (NME/NM23 nucleoside diphosphate kinase 6) | 2 | 1.58 | 113 | 1.21 | 92.1
NME6 (NME/NM23 nucleoside diphosphate kinase 6) | 3 | -0.651 | 68.9 | -1.6 | 117
ZNF526 (zinc finger protein 526) | 1 | 2.17 | 125 | 2.19 | 78.4
ZNF526 (zinc finger protein 526) | 2 | 0.321 | 88.3 | 0.146 | 94.9
ZNF526 (zinc finger protein 526) | 3 | 0.332 | 88.5 | 0.392 | 89.2
MYLK2 (myosin light chain kinase 2) | 1 | 1.5 | 112 | 0.806 | 101
MYLK2 (myosin light chain kinase 2) | 2 | -1.96 | 43 | -1.41 | 69.6
MYLK2 (myosin light chain kinase 2) | 3 | 1.06 | 103 | 0.0188 | 115
ABCA9 (ATP binding cassette subfamily A member 9) | 1 | 0.493 | 91.7 | 0.0799 | 100
ABCA9 (ATP binding cassette subfamily A member 9) | 2 | 0.234 | 86.5 | 0.321 | 88.9
ABCA9 (ATP binding cassette subfamily A member 9) | 3 | 1.55 | 113 | 0.531 | 109
GNAI2 (G protein subunit alpha i2) | 1 | -0.398 | 74 | -0.686 | 99
GNAI2 (G protein subunit alpha i2) | 2 | -0.406 | 73.8 | 0.845 | 66
GNAI2 (G protein subunit alpha i2) | 3 | -0.956 | 62.9 | -1.52 | 105
ELAVL4 (ELAV like RNA binding protein 4) | 1 | 0.0938 | 83.8 | -0.136 | 97
ELAVL4 (ELAV like RNA binding protein 4) | 2 | -0.24 | 77.1 | 0.0382 | 85.3
ELAVL4 (ELAV like RNA binding protein 4) | 3 | -0.271 | 76.5 | -0.936 | 109
FAM120C (family with sequence similarity 120 member C) | 1 | 0.357 | 89 | 0.751 | 81.6
FAM120C (family with sequence similarity 120 member C) | 2 | -1.08 | 60.4 | -0.831 | 84
FAM120C (family with sequence similarity 120 member C) | 3 | 0.22 | 86.3 | -0.0802 | 98.5
GBP6 (guanylate binding protein family member 6) | 1 | 1.45 | 111 | 1.07 | 93.4
GBP6 (guanylate binding protein family member 6) | 2 | 0.41 | 90 | 0.95 | 78.3
GBP6 (guanylate binding protein family member 6) | 3 | -0.0494 | 80.9 | -0.275 | 97.2
